This is an account of results in publication PMC13049129.

Chains of the proteins cited; added tags and fusions are not shown.
UniProt Q13242: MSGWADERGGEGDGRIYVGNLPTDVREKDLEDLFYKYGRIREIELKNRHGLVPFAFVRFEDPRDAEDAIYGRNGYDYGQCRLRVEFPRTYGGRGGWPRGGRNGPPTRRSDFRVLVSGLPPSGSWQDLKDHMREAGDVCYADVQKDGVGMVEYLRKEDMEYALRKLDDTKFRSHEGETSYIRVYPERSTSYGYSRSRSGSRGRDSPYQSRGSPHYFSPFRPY

The experiment concerns the target T1, Flag-tagged zebrafish Endouc (Ec-Flag), expressed in HEK293T cells (zebrafish) (UniProt Q1LUM3).
T1 sequence: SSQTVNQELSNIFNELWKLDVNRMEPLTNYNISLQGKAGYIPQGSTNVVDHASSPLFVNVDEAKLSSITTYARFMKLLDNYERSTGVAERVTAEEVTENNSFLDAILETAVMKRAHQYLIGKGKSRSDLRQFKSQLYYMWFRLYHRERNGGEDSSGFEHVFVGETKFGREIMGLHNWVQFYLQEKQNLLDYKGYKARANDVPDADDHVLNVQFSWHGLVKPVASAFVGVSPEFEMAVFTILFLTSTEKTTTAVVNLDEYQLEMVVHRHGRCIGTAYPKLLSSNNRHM
The experiment is described as follows: co-IP; HEK293T cells transfected 48 h with Flag- and Myc-tagged expression vectors, IP lysis buffer, cleared lysate with anti-Flag beads overnight, 6 washes, elution with 3xFLAG peptide at 4°C, immunoblot. (In general: A western blot detects proteins with antibodies after separation by electrophoresis.)

No constants are given. Whether binding was seen depends on the method and setting. In cells and extracts the contact can be indirect. Some binding calls cover weakened binding; strength is not graded here. Sequences can lack the tags named with a protein.

In the case of “Myc-tagged human Srsf9 (Srsf9-Myc) (from UniProt Q13242 1-221)”, the binding result is “binds”.
